# Structures can show the parent of a compound that is named as a salt. Some of the results follow. Repeats are few or missing, and single values can be far off.
# Legend:
# Experiment in all cases: reduction in cell viability relative to untreated/vehicle; higher = more growth inhibition
# Conditions in all cases: 200 nM; 72 h
# [1] = tested on: M229P (parental melanoma line)
# [2] = tested on: M229R (matched melanoma line resistant to BRAF inhibitors)
# [3] = tested on: M238P (parental melanoma line)
# [4] = tested on: M238R (matched melanoma line resistant to BRAF inhibitors)
# [5] = tested on: M249P (parental melanoma line)
# [6] = tested on: M249R (matched melanoma line resistant to BRAF inhibitors)
# [7] = tested on: UACC62P (parental melanoma line)
# [8] = tested on: UACC62R (matched melanoma line resistant to BRAF inhibitors)
SMILES,reduction in cell viability [1] [%],reduction in cell viability [2] [%],reduction in cell viability [3] [%],reduction in cell viability [4] [%],reduction in cell viability [5] [%],reduction in cell viability [6] [%],reduction in cell viability [7] [%],reduction in cell viability [8] [%]
CCN(CC)CCn1c(=O)c(Cc2ccc(OC)cc2)nc2ccccc21 [Caroverine hydrochloride],< 0,< 0,< 0,0.96,< 0,< 0,3.71,< 0
N[C@@H](Cc1cc(I)c(Oc2cc(I)c(O)c(I)c2)c(I)c1)C(=O)O [L-Thyroxine],< 0,< 0,< 0,< 0,< 0,< 0,< 0,< 0
O=C(O)CCNc1cc(N2CCc3ccccc3CC2)nc(-c2ccccn2)n1,< 0,< 0,< 0,< 0,< 0,< 0,< 0,< 0
Cc1ccc(S(=O)(=O)NC(=O)NN2CC3CCCC3C2)cc1 (stereo not drawn) [Gliclazide],2.6,< 0,< 0,< 0,< 0,< 0,< 0,< 0
CC(/C=C1\SC(=S)N(CC(=O)O)C1=O)=C\c1ccccc1 [Epalrestat],< 0,< 0,< 0,< 0,< 0,< 0,< 0,< 0
Cc1cc(O)c2c(c1)C(=O)c1cccc(O)c1C2=O [Chrysophanol],< 0,< 0,< 0,< 0,< 0,< 0,3.72,< 0
OCCN1C[C@H](O)[C@@H](O)[C@H](O)[C@H]1CO [Miglitol],< 0,< 0,< 0,< 0,< 0,6.58,6.64,< 0
CNc1nc(Nc2ccc(C(=O)N3CCOCC3)cc2OC)ncc1Cl,< 0,< 0,< 0,< 0,< 0,< 0,< 0,< 0
CN(C)CCN(Cc1ccc(Cl)cc1)c1ccccn1 [Chloropyramine hydrochloride],< 0,< 0,< 0,< 0,< 0,2.3,< 0,< 0
Nc1nc(=O)[nH]cc1F [Flucytosine],< 0,< 0,< 0,< 0,< 0,< 0,2.53,< 0
Cc1ccc(C(=O)c2cc(O)c(O)c([N+](=O)[O-])c2)cc1 [Tolcapone],< 0,< 0,5.84,< 0,< 0,< 0,< 0,< 0
O=NN(CCCl)C(=O)NC1CCCCC1 [Lomustine],< 0,< 0,< 0,< 0,< 0,< 0,< 0,< 0
CC(C)NCC(O)COc1ccc(CCOCC2CC2)cc1 (stereo not drawn) [Betaxolol],< 0,< 0,< 0,< 0,< 0,< 0,4,< 0
Cc1[nH]c(/C=C2\C(=O)Nc3ccc(S(=O)(=O)N(C)c4cccc(Cl)c4)cc32)c(C)c1C(=O)N1CCN(C)CC1,< 0,< 0,< 0,< 0,< 0,< 0,< 0,< 0
N[C@H]1CC[C@H](Nc2nc(Nc3ccc(C(=O)N4CCCCC4)cc3)c3ncn(-c4cccc(F)c4)c3n2)CC1 [Purfalcamine],< 0,7.96,35,17.6,6.82,29.1,15.6,< 0
COc1ccc(/C=C\c2cc(OC)c(OC)c(OC)c2)cc1O [Combretastatin A-4],34.3,36.5,51.9,59.1,61.2,34.9,52.1,68.1
COc1cc2c(cc1OC)CC(=O)N(CCCN(C)C[C@H]1Cc3cc(OC)c(OC)cc31)CC2 [Ivabradine hydrochloride],< 0,< 0,< 0,< 0,< 0,< 0,< 0,< 0
C/C=C1\[C@H]2C=C(C)C[C@]1(N)c1ccc(=O)[nH]c1C2 [Huperizine A],< 0,< 0,< 0,< 0,< 0,< 0,< 0,< 0
N#Cc1ccc(Oc2ccc3c(c2)COB3O)cc1,< 0,< 0,< 0,< 0,< 0,< 0,< 0,< 0
COc1ccc([C@@H]2Sc3ccccc3N(CCN(C)C)C(=O)[C@@H]2OC(C)=O)cc1 [Diltiazem hydrochloride],< 0,< 0,< 0,< 0,< 0,< 0,< 0,< 0
O=C(O)c1c(Cl)c(Cl)c(Cl)c(Cl)c1-c1c2cc(I)c(=O)c(I)c-2oc2c(I)c(O)c(I)cc12 [Rose Bengal disodium],< 0,< 0,< 0,< 0,< 0,< 0,27.8,< 0

# Some of the entries so far, bar-delimited:
SMILES | reduction in cell viability [1] [%] | reduction in cell viability [2] [%] | reduction in cell viability [3] [%] | reduction in cell viability [4] [%] | reduction in cell viability [5] [%] | reduction in cell viability [6] [%] | reduction in cell viability [7] [%] | reduction in cell viability [8] [%]
Cc1cc(O)c2c(c1)C(=O)c1cccc(O)c1C2=O [Chrysophanol] | < 0 | < 0 | < 0 | < 0 | < 0 | < 0 | 3.72 | < 0
Cc1ccc(C(=O)c2cc(O)c(O)c([N+](=O)[O-])c2)cc1 [Tolcapone] | < 0 | < 0 | 5.84 | < 0 | < 0 | < 0 | < 0 | < 0
